PubChem BioAssay AID1259254 – NCATS, 2017
This is an unselected part of about 59,000 deposited reagents. About 1,550 of them (2.6%) were called active. 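G2 share is only a proxy for re-replication; each gene was hit by three separate siRNAs, and active genes were retested.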 The numbers tell different reagents against one gene apart. Not all columns of the deposit are shown. No sequences are given here. The record does not give: the amount of reagent.

Test: 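Finding genes that stop cells copying their DNA twice in one cycle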 (primary screen)
Cells: human HCT116 colorectal cancer cells
Reagents: single siRNA against human genes
Time to read-out: 3 days
Measured: 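Imaged Hoechst DNA stain sorts each cell into a cycle phase by DNA amount; per plate, G2 fraction set to 0% for non-targeting and 100% for GMNN siRNA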
Scale: G2 robust z-score: higher = more G2 cells, more excess DNA replication
Rule for the call: 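An siRNA counts as active if its G2 robust z-score lies at least 5 MADs above the screen median; here such calls match roughly 38% of GMNN control or more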

The first 3 entries, ahead of the listing:
gene knocked down,reagent no.,G2 robust z-score,activity call
LRRC7,1,-0.743,inactive
LRRC7,2,-0.486,inactive
LRRC7,3,0.353,inactive

The list itself, from the start:
gene knocked down,reagent no.,G2 robust z-score,activity call
LRRC7,1,-0.743,inactive
LRRC7,2,-0.486,inactive
LRRC7,3,0.353,inactive
SYNE2,1,1.63,inactive
SYNE2,2,0.599,inactive
SYNE2,3,-0.801,inactive
RTN3,1,0.462,inactive
RTN3,2,1.22,inactive
RTN3,3,-0.448,inactive
GLS,1,-0.695,inactive
GLS,2,1.26,inactive
GLS,3,2.24,inactive
CNTRL,1,1.24,inactive
CNTRL,2,0.597,inactive
CNTRL,3,-1.04,inactive
RRM2,1,-0.801,inactive
RRM2,2,1.65,inactive
RRM2,3,5.82,active
RRM2,4,0.041,inactive
RRM2,5,0.535,inactive
RRM2,6,-0.648,inactive
GABPB1,1,-0.368,inactive
GABPB1,2,0.345,inactive
GABPB1,3,0.109,inactive
NGRNP1,1,0.0292,inactive
NGRNP1,2,0.12,inactive
NGRNP1,3,-0.0736,inactive
HS3ST3A1,1,0.21,inactive
HS3ST3A1,2,0.0647,inactive
HS3ST3A1,3,-0.562,inactive
OR52A5,1,1.66,inactive
OR52A5,2,-0.688,inactive
OR52A5,3,-1.11,inactive
WDR25,1,4.63,inactive
WDR25,2,-0.0348,inactive
WDR25,3,-0.613,inactive
AKAP1,1,-0.875,inactive
AKAP1,2,0.671,inactive
AKAP1,3,-0.153,inactive
CHRM5,1,-0.852,inactive
CHRM5,2,-0.128,inactive
CHRM5,3,-0.257,inactive
MGAT2,1,0.278,inactive
MGAT2,2,1.87,inactive
MGAT2,3,5.34,active
ZGPAT,1,-0.792,inactive
ZGPAT,2,4.89,inactive
ZGPAT,3,-0.208,inactive
ZNF823,1,0.434,inactive
ZNF823,2,1.05,inactive
ZNF823,3,-0.161,inactive
PDGFB,1,5.83,active
PDGFB,2,0.455,inactive
PDGFB,3,0.257,inactive
FOXQ1,1,-0.116,inactive
FOXQ1,2,0.124,inactive
FOXQ1,3,0.436,inactive
ALDH8A1,1,0.49,inactive
ALDH8A1,2,0.269,inactive
ALDH8A1,3,2.13,inactive
METTL4,1,1.42,inactive
METTL4,2,0.407,inactive
METTL4,3,1.61,inactive
OR4B1,1,-0.661,inactive
OR4B1,2,0.796,inactive
OR4B1,3,-0.158,inactive
OR5AN1,1,3.53,inactive
OR5AN1,2,1.13,inactive
OR5AN1,3,-0.155,inactive
SLC5A11,1,1.76,inactive
SLC5A11,2,0.744,inactive
SLC5A11,3,0.507,inactive
OR12D3,1,-1.06,inactive
OR12D3,2,-0.602,inactive
OR12D3,3,-0.622,inactive
SLF2,1,4.46,inactive
SLF2,2,0.94,inactive
SLF2,3,1.79,inactive
MRPL48,1,0.12,inactive
MRPL48,2,1.79,inactive
MRPL48,3,-0.428,inactive
ZNF319,1,1.79,inactive
ZNF319,2,0.86,inactive
ZNF319,3,-0.0409,inactive
ADAMTS10,1,3.25,inactive
ADAMTS10,2,4.34,inactive
ADAMTS10,3,0.394,inactive
